Assay results: publication PMC5292664
No constants are given. Whether binding was seen depends on the method and setting. Binding seen in cells or lysates may run through a third protein. Some results given as binding are weak or reduced against the parent protein; the word gives no strength.

Protein sequences, listed by entry. Tags and fused reporters are not part of them.
UniProt P21926: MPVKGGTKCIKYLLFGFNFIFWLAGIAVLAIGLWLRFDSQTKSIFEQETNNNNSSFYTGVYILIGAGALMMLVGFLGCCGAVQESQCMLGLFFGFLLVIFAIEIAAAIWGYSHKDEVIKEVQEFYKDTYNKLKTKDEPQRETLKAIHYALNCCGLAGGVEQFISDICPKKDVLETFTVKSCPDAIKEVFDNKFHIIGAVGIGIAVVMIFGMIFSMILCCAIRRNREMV

Target: CD9-RFP (human) (UniProt P21926)
Assay: co-IP; Jurkat E6.1 cells transfected with RFP constructs, lysed in HEPES buffer (25 mM HEPES, 150 mM NaCl, 5 mM MgCl2, pH 7.2) with 1% CHAPS; RFP-Trap_A agarose beads, 1 h at 4 °C; western blot for endogenous CD81 and RFP under nonreducing conditions; background from the Lifeact-RFP control subtracted

- binding: binds
B1: endogenous CD81 (protein, UniProt P60033 1-236)
chain: MGVEGCTKCIKYLLFVFNFVFWLAGGVILGVALWLRHDPQTTNLLYLELGDKPAPNTFYVGIYILIAVGAVMMFVGFLGCYGAIQESQCLLGTFFTCLVILFACEVAAGIWGFVNKDQIAKDVKQFYDQALQQAVVDDDANNAKAVVKTFHETLDCCGSSTLTALTTSVLKNNLCPSGSNIISNLFKEDCHQKIDDLFSGKLYLIGIAAIVVAVIMIFEMILSMVLCCGIRNSSVY
